# Reference: PubChem BioAssay AID2284344 (EPA ToxCast)
# Inconclusive results, whose numbers are uncertain, are shown with a selection of clear calls. Potencies of inconclusive entries are doubtful fits and often do not repeat. The source made the active and inactive calls. How the source made its calls: active means hit-call score of the fitted dose curve at least 0.9, where 1 is the maximum; inconclusive means response in the unintended direction; inactive means score below 0.9.
# Test system: frog Peroxisome Proliferator-activated Receptor-alpha (PPARa), gene 398843
# Test: ATG_frPPARa_EcoTox2: Attagene TRANS-FACTORIAL EcoTox-2 HepG2 Assay for frog Peroxisome Proliferator-activated Receptor-alpha (PPARa)
# Method: ATG_EcoTox2 is a cell-based, multiplexed assay created by modifying the existing Attagene TRANS-FACTORIAL system to include a panel of nuclear receptors from some or all the following species: human (Homo sapiens), african clawed frog (Xenopus laevis), rainbow trout (Oncorhynchus mykiss), japanese medaka (Oryzias latipes), and zebrafish (Danio rerio). The ECOTOX2-FACTORIAL format uses HepG2, a human liver cell line, with measurements taken at 24 hours after chemical dosing in a 24-well plate. ATG_frPPARa_EcoTox2 is one of 29 assay components calculated in the ATG_EcoTox2 assay. It is designed to make measurements of mRNA induction, a form of inducible reporter, as detected with fluorescence intensity signals by Reverse transcription polymerase chain reaction (RT-PCR) and Capillary electrophoresis technology.The assay endpoint ATG_frPPARa_EcoTox2 was analyzed in the positive analysis fitting direction relative to DMSO as the negative control and baseline of activity. Using a type of inducible reporter, measures of mRNA for gain-of-signal activity can be used to understand the reporter gene at the transcription factor-level as they relate to the gene PPARa. Furthermore, this assay endpoint can be referred to as a primary readout, because this assay has produced multiple assay endpoints where this one serves a reporter gene function. […]
SMILES,AC50,outcome
CCCCOCN(C(=O)CCl)c1c(CC)cccc1CC,inconclusive: 50 µM,
O=P(Oc1ccccc1)(Oc1ccccc1)Oc1ccccc1,,inactive
